According to PubChem BioAssay AID1347426 (Functional Genomics Laboratory (NCATS/FGL), 2020):
The whole screen tested about 31,000 sequences, of which about 1,400 (4.5%) were called active.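 How the source made its calls: active means median seed-adjusted z-score above 1 or below -1; inactive means the rest.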 Some of the results follow.

Test: Novel Modifiers of Survival Motor Neuron (SMN) Protein: Gene Identification via Genome-wide siRNA Screen;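 further: luminescence tracks full-length SMN protein made from the SMN2 reporter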
Settings: HEK293T SMN2-luciferase reporter, siRNA knockdown, 72 h; actives lie on both sides
Method in brief: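 Each of three siRNAs per gene is reverse-transfected (1 pmol) into reporter HEK293T cells whose luciferase output tracks SMN protein level. After 72 h culture, ONE-Glo luminescence is control-normalized, log10-transformed and MAD-standardized; Common Seed Analysis deprioritizes seed-driven hits.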

Sequence | median seed-adjusted z-score
GGUUCGCAGUGAUAAAGGATT against HMGCR | inactive: 0.00174
GAAUUGUACCUACUUCUGUTT against PTPLA | inactive: 0.291
GAGAUUACAUAAACGGAGATT against PARP11 | inactive: 0.192
CGACCUUUCUGGAAUAACATT against SERPINI2 | inactive: -0.174
GAAUGAGCUAAAUAGUGUUTT against TARBP1 | inactive: 0.491
CCUACUAUGUGCUACAGCUTT against MCHR1 | inactive: -0.42
GCAGAAAGAAGUGAACCAATT against TXNL1 | inactive: -0.554
CAGGUUCAGUGUGAGCAGATT against STC2 | inactive: -0.00039
CUACAUCACCCGGAACAAATT against PES1 | inactive: 0.44
CGGCAACUCUGAUUAUAGATT against GNPNAT1 | inactive: 0.313
CUCUAACUAUGAUCUCGUUTT against CDS1 | inactive: 0.0208
GUAUAUGUGACUACCCAUATT against RNF4 | inactive: 0.787
AGAUGAGUGUUAUGCUUAUTT against ZNF793 | inactive: 0.448
CUACUGCAUUGAUAACGAATT against TUBB2C | inactive: 0
AAACAAUUCCAGUCCAGUUTT against IL8RA | inactive: 0.316
GCCCUGCGGUACAAUGUCATT against APOBEC2 | inactive: 0.232
CACCUGCGAUGAAAUCUCATT against ZNF395 | inactive: -0.0986
CCAGGGAUAUGGAGCUUCATT against OTX2 | inactive: -0.00351
GAAAGGAUGUGAAAGCCUUTT against NRIP3 | inactive: -0.699
GGGAAUACCUGGUCUUCAATT against AGBL4 | inactive: 0.487
CGAUUGCCCAUCAUCCUGATT against HAO2 | inactive: 0.039
GCACCAAAGUAUACAACGATT against PRKAR2B | inactive: -0.777
CAGUAUACCAUCUAACAGATT against CNTN1 | inactive: -0.796

Pulled one by one from the entries so far (three):
Sequence | median seed-adjusted z-score
GGGAAUACCUGGUCUUCAATT against AGBL4 | inactive: 0.487
CGAUUGCCCAUCAUCCUGATT against HAO2 | inactive: 0.039
CUACUGCAUUGAUAACGAATT against TUBB2C | inactive: 0

(listing goes on)

Sequence | median seed-adjusted z-score
CUGUAUGGCUUCUAUAUAATT against LBX1 | inactive: -0.36
CAUUGAUCCACAUACCUAUTT against EPHA5 | inactive: -0.00876
CCCGGUUGAUCAUGCAGAATT against SLC25A43 | inactive: 0
CCACGCACAUACUAUCAAATT against HIVEP1 | inactive: 0.532
GAUUAGCACUACAGACUAUTT against PAPOLB | inactive: 0.749
GGAUCCAAGUUCAUCGGGATT against DPEP2 | inactive: 0
GCAUGUUCCUAGUAGCCCUTT against PLEKHM2 | inactive: 0.593
GGAUCGCUCAAAAGAUAAATT against RNPS1 | inactive: 0
GUCCGGAAACAAAACGUAATT against MTF1 | inactive: -0.709
AGAUUAAGAUGUUCUACGATT against ADI1 | inactive: 0.0593
GGAUAACUGGAAACUAGGATT against BIRC2 | inactive: 0.336
UCAGGGAUCUUAAUCAACATT against MS4A4A | inactive: 0.296
CCAGGUCACGAGUCAAGUATT against KTI12 | inactive: 0.0814
GGAAUAAAACUGACUGAUATT against OGFRL1 | inactive: 0.0339
GGAAAAACCUGUGCUCAUATT against LHPP | inactive: 0.02
GCACACCUGUCAAUAGCUUTT against SMPD1 | inactive: 0.353
CAUCUGAAGUGGUUAAGCATT against SLC25A26 | inactive: 0.0213
GUAUCAGAAUGAGAGUUCUTT against ACP2 | inactive: -0.00569
CCCUAUCAGUCCAAUGGAATT against PRDM4 | inactive: 0.0804
CCAGCCCACUCAUCUCAUUTT against SNX30 | inactive: -0.157
CGGCUGGGUCUGUACCAAATT against TLX2 | inactive: -0.182
CCUUAUCCUUCAAAGCAUATT against ART3 | inactive: -0.434
GAGGUGGAAUGGGAGCACATT against TREM2 | inactive: 0.057

Sequence | median seed-adjusted z-score
CAAGAUUGGUCAACUCAAATT against RAB3C | inactive: 0.043
ACAUUUCCGUGCCCAUCUUTT against GPR150 | inactive: -0.129
CAGUGUACGAGGAACAAGATT against RBM17 | inactive: 0
CAUAAACUAUGAUCUCUUATT against RCAN1 | inactive: -0.000195
AGGAGAACAUCAAUGUGAATT against RAB3D | inactive: 0.221
GAAUAACCCUGGAAAAGUUTT against ASCL3 | inactive: 0.0929
UCAUUUAGUUUGUGUAUUATT against PRRX2 | inactive: -0.141
GCAAUGCAGACGAUGCGUATT against TMPRSS4 | inactive: -0.54
GAAGUACACUCAGCAAACATT against VWA5A | inactive: 0
CUAUGUCAGCAUAAAAGAATT against ZNF493 | inactive: 0.0872
GGAAUCACAAAUAAACUUATT against ETNK1 | inactive: 0.299
GCACCGACUAGAUUUCCUUTT against CYP3A5 | inactive: 0.0516
GGACGUGACCAUCAUGUACTT against IRF7 | inactive: -0.304
GGAUCAAGGUUAUUAUGGUTT against ATP12A | inactive: -0.0941
GCAGGUCAAUCAAAGGGAATT against PICK1 | inactive: -0.136
CCAACUCUUUGCAAAGUCATT against SERPINA6 | inactive: 0.615
GGAAGGACAAAACUAUUCATT against CHM | inactive: 0.743
GAAACCAAGUACGAAAUUUTT against SPDYA | inactive: 0.351
GGACUUUGACCUAAUCAGATT against PRKCZ | inactive: -0.175
GGCUGUGGUCUUCAUCGAATT against TPCN2 | inactive: -0.341
CCAUGUCUCGAAUCAACUUTT against TAP2 | inactive: -0.768
GGAUUACCACAGCCUAAAATT against BUB1 | inactive: 0.566
